{"sequences": {"note": "The chains behind the UniProt entries cited, without tags or fusion partners. Where a name states a change or a piece, a line headed by the entry shows the natural chain unless it says otherwise.", "UniProt Q5SSJ5": "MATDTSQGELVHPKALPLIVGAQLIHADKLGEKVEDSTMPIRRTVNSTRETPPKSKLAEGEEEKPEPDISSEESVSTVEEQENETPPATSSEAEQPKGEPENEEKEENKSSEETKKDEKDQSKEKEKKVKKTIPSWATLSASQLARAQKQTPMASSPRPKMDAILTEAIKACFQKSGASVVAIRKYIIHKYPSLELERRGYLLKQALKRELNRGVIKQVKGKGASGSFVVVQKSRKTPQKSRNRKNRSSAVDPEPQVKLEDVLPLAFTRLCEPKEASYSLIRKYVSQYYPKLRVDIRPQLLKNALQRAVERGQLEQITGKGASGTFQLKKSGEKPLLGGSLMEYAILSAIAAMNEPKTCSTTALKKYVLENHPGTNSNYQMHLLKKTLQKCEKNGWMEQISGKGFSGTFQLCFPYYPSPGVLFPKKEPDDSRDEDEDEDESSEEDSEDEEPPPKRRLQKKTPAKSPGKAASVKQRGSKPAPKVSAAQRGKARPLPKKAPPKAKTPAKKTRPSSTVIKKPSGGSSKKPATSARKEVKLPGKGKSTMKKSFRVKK", "UniProt Q9NQS5": "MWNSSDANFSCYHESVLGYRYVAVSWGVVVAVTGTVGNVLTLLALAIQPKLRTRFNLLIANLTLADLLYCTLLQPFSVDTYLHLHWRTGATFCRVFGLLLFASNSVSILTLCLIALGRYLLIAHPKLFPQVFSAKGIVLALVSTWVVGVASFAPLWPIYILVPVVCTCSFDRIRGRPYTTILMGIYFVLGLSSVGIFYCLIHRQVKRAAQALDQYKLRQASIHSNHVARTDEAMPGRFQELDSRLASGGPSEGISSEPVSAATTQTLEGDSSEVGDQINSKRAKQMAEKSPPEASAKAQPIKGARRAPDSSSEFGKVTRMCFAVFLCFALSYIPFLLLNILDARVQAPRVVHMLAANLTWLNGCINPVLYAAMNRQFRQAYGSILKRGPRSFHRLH", "UniProt O95714": "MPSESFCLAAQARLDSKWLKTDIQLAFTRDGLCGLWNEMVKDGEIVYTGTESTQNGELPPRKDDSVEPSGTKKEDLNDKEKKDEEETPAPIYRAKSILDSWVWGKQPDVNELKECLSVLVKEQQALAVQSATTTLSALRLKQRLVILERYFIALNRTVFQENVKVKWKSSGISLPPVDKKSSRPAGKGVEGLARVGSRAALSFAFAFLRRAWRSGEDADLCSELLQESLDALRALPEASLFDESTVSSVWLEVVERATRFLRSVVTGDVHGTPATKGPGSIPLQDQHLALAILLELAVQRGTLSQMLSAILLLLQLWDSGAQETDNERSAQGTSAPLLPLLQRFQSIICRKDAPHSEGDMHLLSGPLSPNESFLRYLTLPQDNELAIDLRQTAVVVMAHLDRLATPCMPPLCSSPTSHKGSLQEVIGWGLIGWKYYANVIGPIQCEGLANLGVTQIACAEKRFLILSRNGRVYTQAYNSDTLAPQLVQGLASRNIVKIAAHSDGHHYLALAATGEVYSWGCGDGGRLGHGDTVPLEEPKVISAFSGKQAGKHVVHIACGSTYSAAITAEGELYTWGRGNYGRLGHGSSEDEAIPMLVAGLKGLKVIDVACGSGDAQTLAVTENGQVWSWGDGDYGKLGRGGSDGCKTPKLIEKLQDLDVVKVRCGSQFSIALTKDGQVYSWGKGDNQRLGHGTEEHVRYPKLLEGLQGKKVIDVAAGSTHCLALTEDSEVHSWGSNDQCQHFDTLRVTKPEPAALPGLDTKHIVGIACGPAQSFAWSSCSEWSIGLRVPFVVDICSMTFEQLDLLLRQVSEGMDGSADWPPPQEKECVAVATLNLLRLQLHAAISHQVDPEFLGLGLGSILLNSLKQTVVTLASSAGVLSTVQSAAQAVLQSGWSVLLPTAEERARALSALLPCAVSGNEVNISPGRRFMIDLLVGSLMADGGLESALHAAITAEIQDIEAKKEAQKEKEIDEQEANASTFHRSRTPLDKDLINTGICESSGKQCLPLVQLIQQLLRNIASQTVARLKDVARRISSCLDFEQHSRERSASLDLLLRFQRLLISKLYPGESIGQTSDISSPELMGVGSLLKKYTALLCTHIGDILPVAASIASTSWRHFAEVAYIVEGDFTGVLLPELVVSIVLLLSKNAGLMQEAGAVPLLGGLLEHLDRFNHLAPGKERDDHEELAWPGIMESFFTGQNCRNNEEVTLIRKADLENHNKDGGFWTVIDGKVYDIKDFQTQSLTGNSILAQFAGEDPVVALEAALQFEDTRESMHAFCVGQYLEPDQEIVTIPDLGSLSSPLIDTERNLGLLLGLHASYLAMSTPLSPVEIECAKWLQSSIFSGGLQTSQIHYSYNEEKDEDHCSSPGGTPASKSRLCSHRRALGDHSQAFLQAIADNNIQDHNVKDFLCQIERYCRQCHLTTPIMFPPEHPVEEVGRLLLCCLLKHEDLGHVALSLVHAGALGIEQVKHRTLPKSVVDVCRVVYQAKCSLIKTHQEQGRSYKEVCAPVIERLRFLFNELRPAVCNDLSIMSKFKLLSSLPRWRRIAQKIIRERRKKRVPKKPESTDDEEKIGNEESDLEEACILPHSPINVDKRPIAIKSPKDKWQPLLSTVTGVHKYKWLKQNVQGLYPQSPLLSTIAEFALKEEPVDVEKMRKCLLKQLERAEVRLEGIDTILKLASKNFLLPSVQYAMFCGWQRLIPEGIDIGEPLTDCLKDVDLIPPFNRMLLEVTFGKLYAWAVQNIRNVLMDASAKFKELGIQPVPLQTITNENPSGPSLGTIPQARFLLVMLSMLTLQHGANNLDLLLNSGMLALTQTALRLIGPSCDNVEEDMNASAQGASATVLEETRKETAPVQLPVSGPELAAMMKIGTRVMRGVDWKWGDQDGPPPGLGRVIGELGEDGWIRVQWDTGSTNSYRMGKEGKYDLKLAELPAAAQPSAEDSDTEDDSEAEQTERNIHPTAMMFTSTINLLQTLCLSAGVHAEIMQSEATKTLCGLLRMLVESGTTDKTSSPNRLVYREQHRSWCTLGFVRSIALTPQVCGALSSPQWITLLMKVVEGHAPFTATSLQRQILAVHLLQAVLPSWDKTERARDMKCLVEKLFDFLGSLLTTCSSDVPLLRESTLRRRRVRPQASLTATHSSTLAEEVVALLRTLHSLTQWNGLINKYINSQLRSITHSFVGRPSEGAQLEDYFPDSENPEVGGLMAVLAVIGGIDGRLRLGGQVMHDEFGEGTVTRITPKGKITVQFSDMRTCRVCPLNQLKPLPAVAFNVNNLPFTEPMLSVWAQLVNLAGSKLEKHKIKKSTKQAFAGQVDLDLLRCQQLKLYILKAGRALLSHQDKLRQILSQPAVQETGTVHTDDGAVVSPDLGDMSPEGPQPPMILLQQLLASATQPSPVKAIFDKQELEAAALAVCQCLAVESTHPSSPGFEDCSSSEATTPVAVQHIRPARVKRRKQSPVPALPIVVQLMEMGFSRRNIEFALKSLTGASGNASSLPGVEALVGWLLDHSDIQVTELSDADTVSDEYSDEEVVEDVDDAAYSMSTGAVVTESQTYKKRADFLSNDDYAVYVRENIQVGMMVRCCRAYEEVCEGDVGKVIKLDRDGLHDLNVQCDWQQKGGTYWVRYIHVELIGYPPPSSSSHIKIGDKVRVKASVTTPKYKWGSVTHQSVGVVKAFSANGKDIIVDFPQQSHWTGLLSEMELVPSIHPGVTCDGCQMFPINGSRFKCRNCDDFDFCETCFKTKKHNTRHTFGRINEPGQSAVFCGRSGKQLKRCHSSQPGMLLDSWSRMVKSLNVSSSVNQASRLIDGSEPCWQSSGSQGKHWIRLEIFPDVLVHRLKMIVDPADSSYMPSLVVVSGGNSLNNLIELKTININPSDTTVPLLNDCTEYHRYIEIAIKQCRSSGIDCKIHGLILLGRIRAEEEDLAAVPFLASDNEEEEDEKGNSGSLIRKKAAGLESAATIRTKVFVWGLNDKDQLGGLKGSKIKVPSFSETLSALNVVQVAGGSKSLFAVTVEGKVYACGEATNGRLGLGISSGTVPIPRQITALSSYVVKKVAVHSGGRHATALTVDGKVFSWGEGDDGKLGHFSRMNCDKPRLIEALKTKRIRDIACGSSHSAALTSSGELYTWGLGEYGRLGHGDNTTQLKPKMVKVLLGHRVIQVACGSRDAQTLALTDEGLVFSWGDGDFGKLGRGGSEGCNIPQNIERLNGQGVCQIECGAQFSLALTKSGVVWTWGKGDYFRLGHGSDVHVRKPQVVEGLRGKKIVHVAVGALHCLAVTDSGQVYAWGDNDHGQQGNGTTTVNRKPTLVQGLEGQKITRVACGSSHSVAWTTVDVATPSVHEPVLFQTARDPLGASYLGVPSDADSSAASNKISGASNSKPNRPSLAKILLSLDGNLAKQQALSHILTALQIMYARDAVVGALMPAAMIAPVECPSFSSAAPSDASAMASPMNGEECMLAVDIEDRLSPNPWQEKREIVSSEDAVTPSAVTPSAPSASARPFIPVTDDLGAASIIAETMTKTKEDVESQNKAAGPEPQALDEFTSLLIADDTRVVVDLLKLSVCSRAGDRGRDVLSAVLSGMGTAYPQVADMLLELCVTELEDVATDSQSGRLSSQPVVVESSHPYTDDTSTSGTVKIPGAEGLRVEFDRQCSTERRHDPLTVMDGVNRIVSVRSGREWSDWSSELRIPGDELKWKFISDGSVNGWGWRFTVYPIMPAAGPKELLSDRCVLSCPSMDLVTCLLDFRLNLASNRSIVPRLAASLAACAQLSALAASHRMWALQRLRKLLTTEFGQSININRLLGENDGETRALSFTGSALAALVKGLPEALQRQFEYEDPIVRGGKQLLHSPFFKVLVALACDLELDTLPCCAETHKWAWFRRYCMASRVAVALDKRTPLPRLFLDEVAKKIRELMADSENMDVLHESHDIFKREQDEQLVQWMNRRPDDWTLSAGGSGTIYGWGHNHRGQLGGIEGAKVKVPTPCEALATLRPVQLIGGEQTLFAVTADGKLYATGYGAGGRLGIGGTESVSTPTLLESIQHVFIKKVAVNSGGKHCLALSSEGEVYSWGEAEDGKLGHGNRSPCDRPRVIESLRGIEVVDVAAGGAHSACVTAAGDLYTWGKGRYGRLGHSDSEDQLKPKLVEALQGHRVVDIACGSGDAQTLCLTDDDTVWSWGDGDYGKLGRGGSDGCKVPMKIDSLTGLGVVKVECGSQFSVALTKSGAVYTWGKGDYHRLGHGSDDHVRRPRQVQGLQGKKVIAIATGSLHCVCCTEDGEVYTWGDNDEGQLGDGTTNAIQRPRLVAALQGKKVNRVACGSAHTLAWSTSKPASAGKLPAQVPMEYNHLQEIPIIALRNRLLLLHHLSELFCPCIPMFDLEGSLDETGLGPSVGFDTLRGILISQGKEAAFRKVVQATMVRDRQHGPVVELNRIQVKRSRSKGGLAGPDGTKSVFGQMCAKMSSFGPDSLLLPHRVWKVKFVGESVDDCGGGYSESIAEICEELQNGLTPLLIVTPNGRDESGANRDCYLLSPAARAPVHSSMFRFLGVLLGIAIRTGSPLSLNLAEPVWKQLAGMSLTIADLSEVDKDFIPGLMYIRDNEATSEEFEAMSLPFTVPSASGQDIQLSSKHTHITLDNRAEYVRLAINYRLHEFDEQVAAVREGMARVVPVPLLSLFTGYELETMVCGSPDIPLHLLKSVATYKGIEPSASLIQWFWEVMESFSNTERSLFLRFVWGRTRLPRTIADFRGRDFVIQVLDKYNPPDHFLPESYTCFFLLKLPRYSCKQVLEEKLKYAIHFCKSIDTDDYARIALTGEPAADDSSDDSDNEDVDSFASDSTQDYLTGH", "UniProt P0C0S5, whole entry": "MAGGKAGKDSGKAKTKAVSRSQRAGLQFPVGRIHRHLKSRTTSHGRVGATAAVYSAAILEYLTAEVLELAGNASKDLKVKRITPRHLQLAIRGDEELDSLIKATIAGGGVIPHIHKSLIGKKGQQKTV", "UniProt P00390": "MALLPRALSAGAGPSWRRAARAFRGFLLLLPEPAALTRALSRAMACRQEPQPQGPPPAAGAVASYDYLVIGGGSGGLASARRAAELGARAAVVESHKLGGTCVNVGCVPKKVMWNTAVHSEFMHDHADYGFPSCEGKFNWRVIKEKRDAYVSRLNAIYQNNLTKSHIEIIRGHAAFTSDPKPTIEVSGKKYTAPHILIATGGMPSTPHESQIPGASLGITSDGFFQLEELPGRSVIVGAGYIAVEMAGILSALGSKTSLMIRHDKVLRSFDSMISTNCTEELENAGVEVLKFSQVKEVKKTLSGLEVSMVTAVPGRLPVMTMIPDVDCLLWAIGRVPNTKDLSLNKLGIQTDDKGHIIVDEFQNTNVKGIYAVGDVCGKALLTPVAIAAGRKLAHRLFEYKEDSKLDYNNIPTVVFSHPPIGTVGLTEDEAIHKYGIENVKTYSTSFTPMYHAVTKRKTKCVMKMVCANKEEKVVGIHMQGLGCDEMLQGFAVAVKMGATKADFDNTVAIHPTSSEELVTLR"}, "source": "the supplement of paper PMC7666118", "note": "Some of the results follow."}
{"compound": "COc1ccc(Cn2ccc3cc(C)c(C(=O)NO)cc32)cc1", "experiment": "dose-dependent thermal stabilisation call (2D-TPP, DLPTP, 10% FDR) (binary (1 = stabilised)); higher = stabilised by the compound", "conditions": "system: HL-60 intact cells; concentration range 0.04-10 µM", "protocol": "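2D thermal proteome profiling in intact HL-60 cells treated with BRD-3811 (0, 0.04, 0.29, 2, 10 uM) for 90 min at 37 C, then heated 3 min at one of 12 temperatures (42-63.9 C). Soluble protein was quantified by TMT10 MS. The value is the DLPTP call of the paper: dose-dependent thermal stabilisation over all temperatures at 10% FDR (F-test of a dose-response against a flat model); one experiment, one call per tested protein.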"}
{"target": "GOLGA3 (UniProt Q08378)", "dose-dependent thermal stabilisation call": "inactive: 0"}
{"target": "GOLGA4 (UniProt Q13439)", "dose-dependent thermal stabilisation call": "inactive: 0"}
{"target": "GTF2F1 (UniProt P35269)", "dose-dependent thermal stabilisation call": "inactive: 0"}
{"target": "HP1BP3 (UniProt Q5SSJ5)", "dose-dependent thermal stabilisation call": "inactive: 0"}
{"target": "GPR84 (UniProt Q9NQS5)", "dose-dependent thermal stabilisation call": "inactive: 0"}
{"target": "HSF1 (UniProt Q00613)", "dose-dependent thermal stabilisation call": "inactive: 0"}
{"target": "HEATR6 (UniProt Q6AI08)", "dose-dependent thermal stabilisation call": "inactive: 0"}
{"target": "GNPDA1 (UniProt P46926)", "dose-dependent thermal stabilisation call": "inactive: 0"}
{"target": "HEATR7A (UniProt Q8NDA8)", "dose-dependent thermal stabilisation call": "inactive: 0"}
{"target": "GTF2F2 (UniProt P13984)", "dose-dependent thermal stabilisation call": "inactive: 0"}
{"target": "HERC2 (UniProt O95714)", "dose-dependent thermal stabilisation call": "inactive: 0"}
{"target": "HDAC2 (UniProt Q92769)", "dose-dependent thermal stabilisation call": "inactive: 0"}
{"target": "HEATR2 (UniProt Q86Y56)", "dose-dependent thermal stabilisation call": "inactive: 0"}
{"target": "HDAC1 (UniProt Q13547)", "dose-dependent thermal stabilisation call": "inactive: 0"}
{"target": "HDHD2 (UniProt Q9H0R4)", "dose-dependent thermal stabilisation call": "inactive: 0"}
{"target": "HSD17B10 (UniProt Q99714)", "dose-dependent thermal stabilisation call": "inactive: 0"}
{"target": "HDHD1A (UniProt Q08623)", "dose-dependent thermal stabilisation call": "inactive: 0"}
{"target": "GPX1 (UniProt P07203)", "dose-dependent thermal stabilisation call": "inactive: 0"}
{"target": "H2AFY (UniProt O75367)", "dose-dependent thermal stabilisation call": "inactive: 0"}
{"target": "HSDL1 (UniProt Q3SXM5)", "dose-dependent thermal stabilisation call": "inactive: 0"}
{"target": "H2AFZ (UniProt P0C0S5)", "dose-dependent thermal stabilisation call": "inactive: 0"}
{"target": "HMGN4 (UniProt O00479)", "dose-dependent thermal stabilisation call": "inactive: 0"}
{"target": "GUSB (UniProt P08236)", "dose-dependent thermal stabilisation call": "inactive: 0"}
{"target": "GUF1 (UniProt Q8N442)", "dose-dependent thermal stabilisation call": "inactive: 0"}
{"target": "GTF2H1 (UniProt P32780)", "dose-dependent thermal stabilisation call": "inactive: 0"}
{"target": "HADHB (UniProt P55084)", "dose-dependent thermal stabilisation call": "inactive: 0"}
{"target": "HIP1R (UniProt O75146)", "dose-dependent thermal stabilisation call": "inactive: 0"}
{"target": "HBS1L (UniProt Q9Y450)", "dose-dependent thermal stabilisation call": "inactive: 0"}
{"target": "HOMER1 (UniProt Q86YM7)", "dose-dependent thermal stabilisation call": "inactive: 0"}
{"target": "HSPA1A (UniProt P0DMV8)", "dose-dependent thermal stabilisation call": "inactive: 0"}
{"target": "HDLBP (UniProt Q00341)", "dose-dependent thermal stabilisation call": "inactive: 0"}
{"target": "HEXIM1 (UniProt O94992)", "dose-dependent thermal stabilisation call": "inactive: 0"}
{"target": "GSR (UniProt P00390)", "dose-dependent thermal stabilisation call": "inactive: 0"}
{"target": "HK2 (UniProt P52789)", "dose-dependent thermal stabilisation call": "inactive: 0"}
{"target": "HNRNPR (UniProt O43390)", "dose-dependent thermal stabilisation call": "inactive: 0"}
{"target": "HBXIP (UniProt O43504)", "dose-dependent thermal stabilisation call": "inactive: 0"}
{"target": "HIRIP3 (UniProt Q9BW71)", "dose-dependent thermal stabilisation call": "inactive: 0"}
{"target": "HCLS1 (UniProt P14317)", "dose-dependent thermal stabilisation call": "inactive: 0"}
{"target": "HSPA4L (UniProt O95757)", "dose-dependent thermal stabilisation call": "inactive: 0"}
{"target": "GRWD1 (UniProt Q9BQ67)", "dose-dependent thermal stabilisation call": "inactive: 0"}
